Results reported in PubChem BioAssay AID651640 (Broad Institute, 2012).
Out of some 350,000 compounds screened, about 6,000 (1.7%) were called active. The inconclusive results got no clear call from the source; some entries with a clear call stand among them for comparison. Cut-off read from the data, not from the text of the source: active = CPE inhibition above about 20% (passing the limit was not always enough); inconclusive = no clear call, values can overlap the other calls; tested in BHK-21 cells.

Assay: protection of cells from dengue 2 killing – plate reader, single concentration, primary screen (AID 651640);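 note: 0% = median of neutral control wells and 100% = median of positive control wells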
Conditions: DENV2-infected cells, cytopathic effect rescue, at 9.99 µM, hits give high values

SMILES	CPE inhibition
Cc1ccc(S(=O)(=O)NCCc2nnc3ccc(N4CCOCC4)nn23)cc1	inconclusive: 39.5%
CN1CCN(C(=O)C[C@H]2C[C@H]3c4cc(NC(=O)Nc5ccc(F)cc5)ccc4O[C@H]3[C@H](CO)O2)CC1	inactive: 1.23%
C[C@H](CO)N1C[C@H](C)[C@@H](CN(C)C)Oc2ccc(NC(=O)Cc3ccccc3)cc2CC1=O	inconclusive: 41.3%
COc1cccc(-c2ccc3c(c2)[C@@H]2[C@@H](CCN2C(=O)NC2CCCCC2)[C@H](CO)N3C)c1	inactive: 1.03%
O=C(c1cc2cc([N+](=O)[O-])ccc2oc1=O)N1CCOCC1	inactive: -1.36%
Cc1ccc(OCC(=O)NCCCNC(=O)c2cnccn2)cc1C	inconclusive: 29%
COCCNC(=O)C[C@@H]1CC[C@@H]2[C@@H](COc3ccc(NC(=O)Nc4ccccc4)cc3C(=O)N2C)O1	inactive: -0.437%
CCN1CCN(c2ccc(S(=O)(=O)N3CCCCC3)cc2NC(=O)c2ccc(C)c(C)c2)CC1	active: 38%
C/C(=N\NC(=O)c1c[nH]c2ccccc12)c1ccc2c(c1)OCO2	inconclusive: 23.3%
Cc1cc(C(=O)N2CCCC(N3CCN(c4cccc(C(F)(F)F)c4)CC3)C2)no1 (stereo unspecified)	inconclusive: 32.1%
CO[C@@H]1CN(C)C(=O)c2cc(NS(C)(=O)=O)ccc2OC[C@@H](C)N(C(=O)CN(C)C)C[C@@H]1C	active: 20.6%
Nc1ccc(-c2c3ccc(=O)cc-3oc3cc(O)ccc23)cc1C(=O)O	inactive: 5.46%
CS(=O)(=O)c1ccc(C(=O)OC2CCOC2=O)cc1[N+](=O)[O-] (stereo unspecified)	inconclusive: 24.7%
COc1ccc(C)cc1NC(=O)CCN1CCN(C/C=C/c2ccccc2)CC1	inconclusive: 35.1%
CCCC#Cc1ccc([C@@H]2[C@@H](CO)N3CCCCN(Cc4cccnc4)C[C@H]23)cc1	inactive: 5.62%
CS(=O)(=O)N1CC(=O)N2[C@@H](CO)[C@H](c3ccc(C#CC4CCCC4)cc3)[C@@H]2C1	inconclusive: 30.8%
CCC(=O)OC1(C)C(=O)C=C2C=C(c3ccc(C#N)cc3)OC=C2C1=O (stereo unspecified)	inactive: -5.11%
CC(C)NC(=O)N(C)C[C@H]1Oc2ncc(C#CC3(O)CCCC3)cc2C(=O)N([C@H](C)CO)C[C@@H]1C	inconclusive: 24.6%
Cc1ccc(S(=O)(=O)N[C@H]2CC[C@@H](CCn3cc(-c4cccc(F)c4)nn3)O[C@@H]2CO)cc1	inconclusive: 28.1%
CC(C)NC(=O)N(C)C[C@H]1Oc2ccc(NC(=O)CCC(F)(F)F)cc2C(=O)N([C@H](C)CO)C[C@H]1C	active: 71.5%
C[C@@H]1CN([C@H](C)CO)C(=O)c2cc(NC(=O)Cn3cnnn3)ccc2O[C@H]1CN(C)C(=O)Nc1ccc2c(c1)OCO2	inactive: -5.03%
Cn1cnc(S(=O)(=O)N2C[C@H](O)COC[C@@H]3O[C@H](CC(=O)NC4CCCC4)CC[C@H]32)c1	inconclusive: 86.9%
CN(C)C(=O)C[C@@H]1CC[C@H]2[C@@H](COC[C@@H](O)CN2CC2CCCC2)O1	inactive: -1.98%
CCN(CC(=O)Nc1ccc2c(c1)OCCO2)C(=O)CSCC(=O)Nc1ccc(C)cc1	inconclusive: 38.6%

SMILES	CPE inhibition
CC(=O)NC[C@H]1[C@@H](c2ccc(C3=CCCCC3)cc2)[C@@H](CO)N1C(=O)NC(C)C	active: 54.9%
O=C(Nc1ccc2c(c1)OCO2)N[C@@H]1CC[C@H](CCNC(=O)C2CCCCC2)O[C@@H]1CO	inactive: 3%
CC=Cc1ccc2n(c1=O)C[C@H]1[C@H](CO)[C@@H](C(=O)Nc3ccc(-c4ccccc4)cc3)[C@@H]2N1CC (mixture of isomers)	inactive: 0.852%
CC(NC(=O)C1CCN(C(=O)[C@@H]2Cc3ccccc3CN2C(=O)OC(C)(C)C)CC1)c1ccccc1 (stereo partly specified)	inactive: 2.3%
C[C@@H]1CN([C@@H](C)CO)C(=O)c2cccc(NC(=O)c3ccncc3)c2O[C@H]1CN(C)Cc1ccccc1	inactive: -5.94%
Cc1ccc(/C=C(\C#N)C(=O)NCc2ccco2)o1	inconclusive: 27.8%
O=C(Nc1ccc(C2=NCCN2)cc1)c1ccc(C(=O)Nc2ccc(C3=NCCN3)cc2)c([N+](=O)[O-])c1	inactive: -1.99%
O=C(Nc1ccc(F)cc1)N1CC(=O)N2[C@@H](CO)[C@H](c3ccc(-c4ccc(F)cc4)cc3)[C@@H]2C1	inconclusive: 22.8%
C[C@@H]1CCCCO[C@H](CN(C)S(=O)(=O)c2ccccc2)[C@@H](C)CN([C@@H](C)CO)C(=O)c2cc(NC(=O)Nc3ccccc3)ccc2O1	inactive: -1.33%
O=C(O)C1=CCC=CC1C(=O)O (stereo unspecified)	inactive: 14.3%
CCOc1ccc(CNC(=O)Cn2c(=O)c3cccn3c3ccccc32)cc1	inconclusive: 30.8%
Cc1ccccc1-c1cnc2c(c1)C(=O)N([C@H](C)CO)C[C@H](C)[C@H](CN(C)Cc1cccnc1)O2	inactive: 18%
C/C(=N\Nc1ccc(C)c(Cl)c1)c1ccncc1	inconclusive: 30.2%
COc1ccc2c3c([nH]c2c1)[C@H](CO)N(C)CC31CN(S(=O)(=O)c2cccc(F)c2)C1	inconclusive: 26.8%
C[C@@H]1CN([C@@H](C)CO)C(=O)c2cc(NC(=O)Cc3cn(C)c4ccccc34)ccc2O[C@@H]1CN(C)C(=O)Nc1ccc(F)cc1	inconclusive: 45.4%
COc1ccc(/C=N/Nc2nc(N3CCCC3)nc(N3CCCC3)n2)cc1	inactive: -17.8%
O[C@H]1CN(Cc2cccs2)[C@@H](c2ccc(Cl)cc2)C[C@@H]1n1cc(C2CC2)nn1	inconclusive: 43.9%
COc1ccc(-c2ccc3c(c2)C2CC3CCN2S(=O)(=O)c2ccccc2C)cc1 (stereo unspecified)	inconclusive: 27.2%
CC(C)C(=O)Nc1ccc2c(c1)C(=O)N(C)[C@H]1CC[C@H](CC(=O)Nc3cccc(F)c3)O[C@@H]1CO2	inactive: -6.81%
N#Cc1ccc(-c2ccc(OCC(=O)NN=Cc3ccncc3)cc2)cc1	active: 29.5%
Cc1ccc(S(=O)(=O)Nc2ccc3c(c2)C(=O)N([C@H](C)CO)C[C@H](C)[C@@H](CN(C)S(=O)(=O)c2ccc(C)cc2)O3)cc1	inactive: -0.615%
COc1ccc(C2CC(=O)C=C(O)C2)cc1 (stereo unspecified)	inactive: -0.306%
C[C@@H]1CN([C@H](C)CO)C(=O)c2cc(NC(=O)Nc3cccc4ccccc34)ccc2O[C@@H]1CN(C)Cc1ccc(Cl)c(Cl)c1	inconclusive: 24.6%
COCCNC(=O)[C@@H]1[C@@H](CO)[C@@H]2Cn3c(cccc3=O)[C@@H]2N1Cc1ccccc1OC	inconclusive: 21.9%

Taken from above:
CPE inhibition with `CCN(CC(=O)Nc1ccc2c(c1)OCCO2)C(=O)CSCC(=O)Nc1ccc(C)cc1` is entered as inconclusive: 38.6%
CPE inhibition with `C[C@@H]1CN([C@@H](C)CO)C(=O)c2cccc(NC(=O)c3ccncc3)c2O[C@H]1CN(C)Cc1ccccc1` is entered as inactive: -5.94%
CPE inhibition with `CC(C)NC(=O)N(C)C[C@H]1Oc2ccc(NC(=O)CCC(F)(F)F)cc2C(=O)N([C@H](C)CO)C[C@H]1C` is entered as active: 71.5%
CPE inhibition with `O=C(Nc1ccc(F)cc1)N1CC(=O)N2[C@@H](CO)[C@H](c3ccc(-c4ccc(F)cc4)cc3)[C@@H]2C1` is entered as inconclusive: 22.8%
CPE inhibition with `CC(NC(=O)C1CCN(C(=O)[C@@H]2Cc3ccccc3CN2C(=O)OC(C)(C)C)CC1)c1ccccc1` (stereo partly specified) is entered as inactive: 2.3%
CPE inhibition with `CS(=O)(=O)c1ccc(C(=O)OC2CCOC2=O)cc1[N+](=O)[O-]` (stereo unspecified) is entered as inconclusive: 24.7%

(next part)

SMILES	CPE inhibition
CCC(C)(C)n1nnnc1C(c1ccccc1F)N1CCN(C(=O)c2ccco2)CC1 (stereo unspecified)	inconclusive: 37.7%
N#Cc1ccc(NC(=O)c2cc(-c3cccs3)on2)cc1	inconclusive: 29.7%
CCOc1ccc(NC(=O)CCN2C(=O)CSc3ccccc32)cc1	inconclusive: 22.4%
COc1cccc(N(CC(=O)NCc2ccccc2)C(=O)CCC(=O)Nc2nccs2)c1	inconclusive: 28.3%
CN(C)C(=O)[C@H]1[C@H](CO)[C@H]2Cn3c(cccc3=O)[C@@H]1N2C(=O)c1ccccc1	inactive: 1.64%
C[C@H]1CN([C@@H](C)CO)C(=O)c2cccc(NC(=O)Nc3ccc(F)cc3)c2O[C@H]1CN(C)CC1CC1	inactive: -4.91%
Cc1noc(C)c1S(=O)(=O)Nc1ccc2c(c1)C(=O)N([C@H](C)CO)C[C@H](C)[C@H](CN(C)S(=O)(=O)c1cccs1)O2	inactive: -8.82%
COc1cc([N+](=O)[O-])ccc1NC(=O)CSc1nncn1-c1cccnc1	inconclusive: 22.8%
COc1ccccc1CCc1nnc(CCC(=O)NCCC2CCCCO2)o1 (stereo unspecified)	inconclusive: 34.2%
Cc1ccc(/C=N/NC(=O)c2ccc(-n3cnnn3)cc2)cc1	active: 32.4%
CCN1CCN(C(=O)C(C)Oc2ccc(S(=O)(=O)N3CCCC3)cc2C(N)=O)CC1 (stereo unspecified)	inconclusive: 55.9%
COc1cccc(NC(=O)N[C@H]2C=C[C@@H](CC(=O)N3CCCCC3)O[C@@H]2CO)c1	inconclusive: 31.4%
O=C(NC1CC2CCCC(C1)N2Cc1ccccc1)c1ccc([N+](=O)[O-])cc1 (stereo unspecified)	inconclusive: 27.7%
O=C(c1ccc(F)cc1)N1CC(=O)N2[C@H](CO)[C@H](c3ccc(-c4ccccc4F)cc3)[C@@H]2C1	inactive: 7.8%
CCN(CCN(C)C)C(=O)Cn1ncc2c1-c1cc(C)ccc1OC2	inactive: -6.52%
CN(C)CC(=O)N[C@H]1CC[C@@H](CC(=O)O)O[C@@H]1CO	inactive: -4.18%
Cc1cc(C)c(S(=O)(=O)N(C)CC(=O)NCc2ccncc2)c(C)c1	inconclusive: 21.5%
CO[C@H]1CN(C)C(=O)c2cc(NC(C)=O)ccc2OC[C@H](C)N(Cc2ccccn2)C[C@H]1C	inactive: -3.33%
C[C@@H]1CN([C@H](C)CO)C(=O)c2cc(NC(=O)Nc3ccc(C(F)(F)F)cc3)ccc2O[C@@H](C)CCCCO[C@@H]1CN(C)C(=O)NC1CCCCC1	inconclusive: 27.1%
COc1cccc(-c2ccc3c(c2)[C@H]2[C@H](CCN2C(=O)CN2CCOCC2)[C@H](CO)N3)c1	inconclusive: 24.6%
COCCNC(=O)C1(C)CCN(C(=O)c2ccc3sccc3c2)C1 (stereo unspecified)	active: 53.7%
CC(=O)Nc1ccc(C(=O)CN2C(=O)NC3(CCCCCC3)C2=O)c(F)c1	inactive: -6.84%
C[C@H](CO)N1C[C@H](C)[C@@H](CN(C)C)OCCCC[C@H](C)Oc2ccc(NC(=O)Cc3ccccc3)cc2C1=O	inactive: -4.71%
